These results are taken from PubChem BioAssay AID1487 (National Center for Advancing Translational Sciences (NCATS), 2009).

SMILES strings stand for the structures. This is one part of the list. The main result of the screen is listed elsewhere. These columns were measured beside it and carry no call. Compounds called inactive in the main read-out are mostly missing here. The note in brackets gives the kind of curve behind each potency; many fits are weak.

The nature of this experiment: qHTS Assay for Modulators of Lamin A Splicing. As to conditions: HeLa LMNA splicing GFP/RFP minigene ratio, 48 h. The gist of the method: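 S3 HeLa cells stably expressing lamin A-EGFP splicing minigene plus DsRed2, 600 cells/well, 48 h compound exposure at 37C. Laser-scanning cytometry; analysed as GFP (500-530 nm)/RFP (575-640 nm) total intensity ratio; 0.5% DMSO vehicle.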

Setting [1] is: measured here: GFP splicing reporter channel.
The mark [2] stands for this setting: measured here: RFP viability control channel.

On to `CN(c1ccccc1)S(=O)(=O)c1ccc(NC(=S)NC(=O)c2ccccc2)cc1`, for which the concentration at half-maximal activity (AC50) is, setting by setting: under setting [1], 20 µM [rising, partial curve, poor fit]; under setting [2], 14.1 µM [rising, single point].

Take `CCC(CO)[n+]1c(C)cc(/C=C2\Sc3ccccc3N2Cc2ccccc2)cc1C` (stereo not given): the AC50 under setting [2] is 14.1 µM [rising, partial curve, poor fit]. The same measure, in the same setting: the same measure for `COC(=O)/C=C1\OC(c2ccccc2)=CC1=O`: 12.6 µM [rising, single point]; for `Cc1cc(C(=O)N/N=C2\CC(=O)CC(C)(C)C2)c(C)n1-c1ccc(F)cc1`: 14.1 µM [rising, single point]. Take `O=C(NCc1ccc2c(c1)OCO2)c1cc(-c2ccccn2)nc2ccccc12`: under setting [1], the AC50 was 11.2 µM [falling, partial curve, poor fit]. For the compound `O=C(c1ccco1)N(Cc1cccnc1)c1nc2ccc(F)cc2s1`, the AC50 under setting [1] is 0.00355 µM [falling, full curve, poor fit] and the half-maximal activity concentration (AC50) under setting [2] is 0.00891 µM [falling, full curve, poor fit]. Consider `CCN(CC)c1ccc2c(Cl)c(Br)c(=O)oc2c1`, for which, under setting [2], the half-maximal activity concentration (AC50) is 35.5 µM [falling, single point]. On to `Cc1nn(C(=O)C2CC2)c(C)c1Sc1ccc(Cl)cc1`, for which the concentration at half-maximal activity (AC50) under setting [2] is 12.6 µM [rising, single point]. For the compound `Cc1ccnc(NC(=O)c2ccc(Cl)c(NC(=O)C(C)Oc3ccccc3)c2)c1` (stereo not given), the AC50 under setting [2] is 0.00224 µM [falling, full curve, poor fit]. On to `O=C(Nc1ccc2c(c1)CCC2)C1CCN(c2c3c(nc4ncnn24)CCC3)CC1`, for which the AC50 is 2 µM [rising, full curve] under setting [1] and 7.94 µM [rising, partial curve] under setting [2].

For the compound `O=C(CSc1nccn1Cc1ccco1)Nc1cccc(F)c1`, the AC50 under setting [2] was 35.5 µM [falling, single point]. `Cc1sc2ncnc(N(C)Cc3cccs3)c2c1C`: the AC50 is, setting by setting: under setting [1], 15.8 µM [rising, single point]; under setting [2], 31.6 µM [rising, single point]. Turning to `Cc1cc(C)c(C)c(S(=O)(=O)NNC(=O)c2cccc(S(=O)(=O)N3CCOCC3)c2)c1C`, the AC50 under setting [1] was 35.5 µM [rising, single point]. As to `Cc1cc(N2CCCCC2)n2ncc(-c3ccccc3)c2n1`, the AC50 by setting is: under setting [1], 12.6 µM [rising, partial curve, poor fit]; under setting [2], 12.6 µM [rising, partial curve]. `O=C(CSc1nc2c(sc3ccccc32)c(=O)n1-c1ccccc1)NCc1ccco1`: the half-maximal activity concentration (AC50) by setting is: under setting [1], 35.5 µM [falling, single point]; under setting [2], 31.6 µM [falling, single point]. Regarding `O=C(CSc1ncnc2scc(-c3ccccc3)c12)N1CCN(c2ccccc2F)CC1`, the AC50 is, setting by setting: under setting [1], 15.8 µM [rising, single point]; under setting [2], 22.4 µM [rising, partial curve]. For `CC1Cc2ccccc2N1c1ncnc2nc[nH]c12` (stereo not given), under setting [2], the AC50 is 35.5 µM [falling, single point]. Regarding `CNc1ccccc1C(C)(C)c1cc(-c2ccc(F)cc2)no1`, the AC50 under setting [2] is 6.31 µM [rising, partial curve]. For the compound `O=C(N/N=C/c1ccncc1)c1ccccc1OCc1ccc(Br)cc1`, the AC50 under setting [1] was 3.98 µM [rising, partial curve] and the AC50 under setting [2] was 11.2 µM [rising, partial curve].

In the case of `Cc1ccc(NC(=O)CSc2nn(-c3ccc(Cl)cc3)c(=S)s2)cc1S(=O)(=O)N(C)C`, under setting [2], the AC50 is 6.31 µM [rising, full curve]. In the case of `CC(NC(=O)COc1ccccc1-c1ccccc1)c1ccccc1` (stereo not given), the half-maximal activity concentration (AC50) under setting [2] is 35.5 µM [rising, single point].

For `C=CCc1cc(OC)ccc1OCCOCCC(C(=O)OCC)C(=O)OCC`, the AC50 under setting [2] was 0.0447 µM [falling, full curve, poor fit]. For `Cc1ccc(-c2nc(NC(=O)c3nn(C)cc3[N+](=O)[O-])sc2C)cc1C`, the AC50 under setting [1] is 3.16 µM [falling, single point]. Turning to `COc1ccc(OC)c(Nc2nc(-c3ccccc3O)nc3ccccc23)c1`, under setting [2], the AC50 was 39.8 µM [falling, partial curve, poor fit].

For the compound `Cc1nnc(SCc2ccc(F)cc2)n1NC/C=C/c1ccccc1`, the AC50 under setting [2] is 20 µM [rising, single point].

As for `Cc1ccc(S(=O)(=O)N2CCOC2CNC(=O)C(=O)NCCc2c[nH]c3ccccc23)cc1` (stereo not given), the AC50 under setting [2] was 0.00316 µM [rising, full curve, poor fit]. For the compound `COCc1cc(N2CCCC2)nc(-c2ccccc2)n1`, under setting [1], the AC50 was 0.00398 µM [falling, full curve, poor fit]. For `N#C/C(=C\c1c[nH]c2ccccc12)c1nnc2n1CCCCC2`, the AC50 under setting [2] is 3.55 µM [rising, partial curve].

In the case of `Cc1ccc(S(=O)(=O)N(C)C)cc1NC(=O)COC(=O)CCC(=O)c1cccs1`, the concentration at half-maximal activity (AC50) is 0.282 µM [falling, full curve] under setting [1] and 0.126 µM [falling, full curve] under setting [2].

With `O=C1Nc2ccc(NS(=O)(=O)c3cccs3)c3cccc1c23`, under setting [2], the AC50 is 15.8 µM [rising, single point]. Take `NC(=O)CC[C@@H](N)C(=O)O`: under setting [1], the concentration at half-maximal activity (AC50) was 35.5 µM [falling, single point]. On to `CCN(CC)S(=O)(=O)c1cccc(-c2nnc(SCC(=O)NCCC3=CCCCC3)n2N)c1`, for which, under setting [1], the AC50 was 10 µM [rising, partial curve, poor fit].

Consider `Cc1cc(=O)[nH]c(SCC(=O)c2ccc(C(C)C)cc2)n1`, for which the AC50 is, setting by setting: under setting [1], 17.8 µM [rising, single point]; under setting [2], 31.6 µM [rising, single point]. As to `Cc1ccc(NC(=S)NNC(=O)c2c(Cl)c(C)nn2C)cc1`, the AC50 runs as follows: under setting [1], 35.5 µM [rising, single point]; under setting [2], 25.1 µM [rising, single point]. `O=C(CS(=O)(=O)c1c[nH]c2ccccc12)N1CCCCCC1`: under setting [1], the half-maximal activity concentration (AC50) was 5.62 µM [rising, single point].

With `CCCC(=O)OCCNc1cc(SCCC(=O)OC)c2nonc2c1[N+](=O)[O-]`, the AC50 under setting [2] is 31.6 µM [rising, single point]. As to `COc1ccccc1N1CCN(C(=O)c2c(-c3ccccc3)noc2C)CC1`, the AC50 reads like this: under setting [1], 1.78 µM [falling, single point]; under setting [2], 35.5 µM [rising, single point]. As to `CC(C)C(=O)NC(c1ccco1)c1ccc2cccnc2c1O` (stereo not given), the AC50 was 6.31 µM [rising, partial curve] under setting [1] and 8.91 µM [rising, partial curve] under setting [2]. As to `CC(=O)N1CCCc2cc(S(=O)(=O)N(C)CC(=O)Nc3ccc(F)cc3Cl)ccc21`, under setting [2], the AC50 is 0.251 µM [falling, full curve].

Consider `CCCCOC(=O)NS(=O)(=O)c1sc(CC(C)C)cc1-c1ccc(Cn2c(CC)nc3c(C)cc(C)nc32)cc1`, for which the AC50 by setting is: under setting [1], 20 µM [falling, partial curve]; under setting [2], 15.8 µM [falling, partial curve].

Turning to `COc1ccccc1N1CCN(C(CNC(=O)c2ccco2)c2cccnc2)CC1` (stereo not given), under setting [2], the AC50 is 10 µM [rising, partial curve]. On to `CCOc1ccc(C(=O)Nc2ccc(N3CCN(C(C)=O)CC3)cc2)cc1[N+](=O)[O-]`, for which, under setting [1], the AC50 was 0.00501 µM [falling, full curve, poor fit].

`C/C(CC(=O)Nc1ccc(Cl)c(C(F)(F)F)c1)=N\NC(=O)c1cc2ccccc2cc1O`: the AC50 under setting [2] was 15.8 µM [rising, partial curve].

`c1ccc2sc(NCC3CCCO3)nc2c1` (stereo not given): the AC50 under setting [1] is 0.00891 µM [falling, full curve, poor fit]. With `Cc1ccc(NC(=O)c2c(Nc3ccccc3C)sc(C(=O)c3ccccc3)c2N)cc1`, the AC50 under setting [2] was 15.8 µM [rising, single point]. In the case of `O=[N+]([O-])c1ccc(C[n+]2cccc3ccccc32)cc1`, under setting [1], the AC50 is 17.8 µM [rising, partial curve, poor fit].

As to `O=C(Cc1ccc([N+](=O)[O-])cc1)Nc1cccc(C(F)(F)F)c1`, the AC50 under setting [2] was 3.16 µM [rising, partial curve, poor fit]. With `Cc1nnc(SCC(C)C)[nH]c1=O`, under setting [2], the AC50 is 0.794 µM [falling, full curve]. In the case of `CCCCCCCCn1c2c(c(=N)c3c1CCC3)CCCC2`, the AC50 under setting [2] is 25.1 µM [falling, single point]. As for `Cc1cc(O)c(C(c2ccc(F)cc2)N2CCCCC2)c(=O)n1Cc1ccco1` (stereo not given), the AC50 under setting [1] was 0.0224 µM [rising, full curve, poor fit]. For the compound `CCc1ccc(-n2nc(C)c3c(C(=O)Nc4cccc(C(F)(F)F)c4)cc(C)nc32)cc1`, the AC50 reads like this: under setting [1], 35.5 µM [rising, single point]; under setting [2], 22.4 µM [rising, single point]. Take `CCN(c1ccccc1)S(=O)(=O)c1ccc(NC(=O)c2ccco2)cc1`: the AC50 was 14.1 µM [rising, partial curve] under setting [1] and 20 µM [rising, partial curve] under setting [2]. Turning to `COc1ccc(-c2csc(NC(=S)NC(=O)c3cccs3)n2)cc1OC`, the AC50 under setting [2] was 0.0708 µM [rising, full curve, poor fit]. Regarding `O=c1oc2ccccc2cc1-c1cn2ccccc2n1`, the AC50 was 31.6 µM [falling, single point] under setting [1] and 31.6 µM [falling, partial curve] under setting [2]. With `CCN(CC)c1ccc(CNc2nc3ccccc3n2CCN2CCCCC2)cc1`, the AC50 under setting [2] was 15.8 µM [rising, single point]. Turning to `CCN(CC)c1ccc(/C=N/NC(=S)NCc2ccccc2)c(O)c1`, the AC50 is 11.2 µM [rising, partial curve, poor fit] under setting [1] and 20 µM [rising, partial curve] under setting [2]. Consider `Cn1c(=O)c(C(=O)COC(=O)c2cc(-c3ccco3)nc3ccccc23)c(N)n(Cc2ccccc2)c1=O`, for which the AC50 under setting [2] is 17.8 µM [rising, single point].
